Source: US20190022245A1
Results are given in words; binding and its absence hold for the method and conditions named. Some binding calls cover weakened binding; strength is not graded here.

By UniProt entry, the sequences of proteins in these tests, tags left out. Residues count along the entry.
UniProt P15391, residues 20-556: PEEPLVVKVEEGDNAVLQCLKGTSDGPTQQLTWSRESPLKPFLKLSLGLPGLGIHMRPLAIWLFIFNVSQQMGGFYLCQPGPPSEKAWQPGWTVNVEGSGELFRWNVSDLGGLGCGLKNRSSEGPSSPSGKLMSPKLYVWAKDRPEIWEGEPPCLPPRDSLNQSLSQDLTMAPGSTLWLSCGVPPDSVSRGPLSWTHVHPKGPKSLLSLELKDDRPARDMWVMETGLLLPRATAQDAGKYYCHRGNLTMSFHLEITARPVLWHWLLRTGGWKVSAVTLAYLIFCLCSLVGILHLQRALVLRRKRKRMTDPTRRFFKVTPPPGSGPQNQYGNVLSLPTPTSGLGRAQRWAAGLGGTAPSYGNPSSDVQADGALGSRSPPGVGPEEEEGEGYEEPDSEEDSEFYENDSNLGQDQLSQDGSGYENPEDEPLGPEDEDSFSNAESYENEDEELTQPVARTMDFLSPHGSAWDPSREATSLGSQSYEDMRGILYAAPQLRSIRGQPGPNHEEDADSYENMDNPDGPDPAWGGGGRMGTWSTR

Biological target: CD19 on cells (human (on human cell lines)) (UniProt P15391)
Assay: binding to Raji cells; also delivery of Lipo/DOX to CD19 positive cells

binding: binds
B1: h15-2b scFv × CD19 Fab (monovalent anti-mPEG (h15-2b) anti-CD19 BsAb, example 2.4) (bispecific antibody)
heavy: EVQLVESGGGLVQPGGSLRLSCAASGFTFSSSWMNWVRQAPGKGLEWVGRIYPGDGDTNYNGKFKGRFTISRDDSKNSLYLQMNSLKTEDTAVYYCARSGFITTVLDFDYWGQGTLVTVSSASTKGPSVFPLAPSSKSTSGGTAALGCLVKDYFPEPVTVSWNSGALTSGVHTFPAVLQSSGLYSLSSVVTVPSSSLGTQTYICNVNHKPSNTKVDKRV
light: EIVLTQSPDFQSVTPKEKVTITCRASESVDTFGISFMNWFQQKPDQSPKLLIHAASNQGSGVPSRFSGSGSGTDFTLTINSLEAEDAATYYCQQSKEVPFTFGGGTKVEIKTVAAPSVFIFPPSDEQLKSGTASVVCLLNNFYPREAKVQWKVDNALQSGNSQESVTEQDSKDSTYSLSSTLTLSKADYEKHKLYACEVTHQGLSSPVTKSFNRGECGEQKLISEEDLGGGGSGGGGSGGGGSQLDIQMTQSPSSLSASVGDRVTITCKASQDVNTSVAWYQQKPGKAPKLLIYWASTRHTGVPSRFSGSGSGTDFTFTISSLQPEDIATYYCLQYINYPYTFGQGTKLEIKRGGGGSEVQLVESGGGLVQPGGSLKLSCAASGFTFSNYWMNWVRQASGKGLEWVGEIRSKSNNYATHYAESVKGRFTISRDDSKNTAYLQMNSLKTEDTAVYYCTNRYYWGQGTLVTVSS
